Source: patent publication US12116371B2, “Substituted pyridines as irreversible inhibitors of menin-MLL interaction” (BIOMEA FUSION, INC., priority 2018, dated 2024)

Legend:
[1] = tested on: MOLM-13 (MLL-AF9) cells; assay: Cell proliferation inhibition, CellTiterGlo viability assay, 4 days (Example 102); type: cell-based, human; details: 4 days treatment
From the text: (§1) The objective of the study was to evaluate the ability of compounds of the invention, inhibitors of Menin/MLL interaction to inhibit cell proliferation. The proliferation inhibitory effect was investigated in two human MLL-leukemia cells selected on the bases of MLL fusion protein and listed in Table 1. HL-60 cell line was used as negative control (Table 3).
(§2) ATP is present in all metabolically active cells and is considered as a marker for cell viability and proliferation. The metabolic cell activity was determined using the CellTiter-Glo kit from Promega, an ATP monitoring system based on the production of luminescence by the reaction of ATP with added UltraGlo® recombinant luciferase (Kawano et al., 2016), according to the supplier's experimental recommendations.
(§3) The described assay evaluates the ability of representative compounds of invention to inhibit the cell proliferation in the human MLL-leukemia cells plus a negative control cell line.
(§4) The assay provides potency values (IC50) for each test compound at a single time point Day 4 (T4).
(§5) Seven concentrations of the NCEs (2.00E-05-6.67E-06-2.22E-06-7.41E-07-2.47E-07-8.23E-08-2.74E-08M), were assessed in duplicate in an individual test occasion in all the cell lines. MI-503 (Borkin et al., 2015) was used as reference compound and was tested at the same concentrations as the NCEs. 100% of proliferation is represented by the untreated cells (0.2% DMSO). The cell growth was monitored up to 4 days in culture.
(§6) MV4-11, MOLM-13 and HL-60 cells (see Table 2) were maintained in RPMI-1640 medium (Invitrogen, Cat. n. 618700, Batch n. 1965930) supplemented with 10% of Heat Inactivated FBS (Invitrogen, Cat n. 10500, Batch n. 08Q8078K) and 1% Pen-Strep (Invitrogen, Cat. N. 15140, Batch n. 1910859) and cultured at 37° C. in a humidified incubator with 5% CO2. All the cell lines grow in suspension and the cell density was maintained in a range of 2×10^5-1×10^6 viable cells/ml. Cells were pelleted at 130 g×5 min and conditioned medium was used to dilute the cell suspension.
(§7) Cells were plated in 96-well flat bottom microtiter plates at cell density of 15,000 cells/ml for HL-60, 1000 cells/ml for MOLM-13 and 10,000 cell/ml for MV4-11. Cells were treated with 0.2% DMSO (Sigma, D8418, batch n. SHBH4245V) or serial dilutions of compounds ([…]) in DMSO (0.2% final concentration). Cells were incubated in a 5% CO2 incubator at 37° C. for 4 days. A CellTiterGlo viability assay (Promega) was employed. Luminescence was read by using VictorV (Perkin Elmer) multilabel plate reader using the standard protocol for luminescence in 96 well plate. The experiment was performed in duplicate. […]
(§8) CRCs were analysed by GraphPad and IC50 values were calculated by non-linear regression using 4 parameter-logistic equation. […]

[2] = tested on: MV4-11 (MLL-AF4) cells; assay: as above; type: cell-based, human; details: 4 days treatment
From the text: as §1, §2, §3, §4, §5, §6, §7, §8

| Structure (SMILES) | slope [1] | slope [2] |
| --- | --- | --- |
| C=CC(=O)NC1CN(c2ccnc(NC(=O)Nc3ccc(-c4cc5c(N6CCOCC6)ncnc5[nH]4)cc3)c2)C1 [Compound 1] | 4.4 | 1.6 |
| Cc1c(CN2CCC(Nc3ncnc4sc(CC(F)(F)F)cc34)CC2)ccc2c1cc(C#N)n2Cc1cn[nH]c1 [MI-503, reference compound] | 1.0 | 1.4 |
